Test results taken from paper PMC3271085.
These are yes or no findings as the source states them, for the method shown. Some entries that bind do so weakly or less than the wild type.

Sequences of proteins named here, by UniProt entry; tags and fusion partners are left off. Residues count along the entry.
UniProt O15444, residues 24-150: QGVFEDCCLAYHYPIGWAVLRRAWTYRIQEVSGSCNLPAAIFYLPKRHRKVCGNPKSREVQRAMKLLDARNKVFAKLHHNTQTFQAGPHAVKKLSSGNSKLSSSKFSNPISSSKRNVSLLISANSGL

Molecular target: T1, human CCR9 (human) (UniProt P51686)
T1 sequence: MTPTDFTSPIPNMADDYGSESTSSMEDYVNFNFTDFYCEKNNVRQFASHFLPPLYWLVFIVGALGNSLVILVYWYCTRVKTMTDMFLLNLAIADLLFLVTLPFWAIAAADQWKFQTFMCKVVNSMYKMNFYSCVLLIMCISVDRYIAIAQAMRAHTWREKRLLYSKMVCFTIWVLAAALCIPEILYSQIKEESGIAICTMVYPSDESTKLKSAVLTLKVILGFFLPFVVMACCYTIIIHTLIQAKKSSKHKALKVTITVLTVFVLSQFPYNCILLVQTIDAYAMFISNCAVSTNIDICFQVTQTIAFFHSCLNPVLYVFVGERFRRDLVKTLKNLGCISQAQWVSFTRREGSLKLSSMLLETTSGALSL
Test: radioligand binding; only the binder purified

radio-iodinated recombinant human CCL25 (from UniProt O15444 24-150) (ligand)
binding: binds
